PubChem BioAssay AID1224831 – NIAID – 2016
This is one part, drawn at random, of about 3,500 reagents. 731 of all reagents (21%) count as active. 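Active means either lowered or raised reporter signal; the gene-median score did not drive the per-siRNA calls.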 Entries without a mark were called inactive. Reagents against one gene are numbered here.

- Test: 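Confirming genome-wide hits on LPS-triggered TNF-alpha induction with independent siRNA sequences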 (follow-up of hits)
- Cells: human THP-1 B5 monocytic leukaemia cells carrying a TNF promoter luciferase reporter, made macrophage-like with PMA
- Knock-down reagent: single siRNA against human genes, 50 nM
- Duration: about 68 h of knock-down, then 4 h LPS
- Conditions: LPS (Salmonella minnesota, TLR-grade) at 10 ng/ml for 4 h; PMA 5 ng/ml present during knock-down
- Measurement: 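TNF promoter reporter read as dual luciferase ratio after 4 h LPS, normalised per plate to its median, given as replicate mean robust z-score per siRNA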
- Reading the numbers: TNF reporter z-score: higher = stronger LPS-induced TNF reporter signal; z-score, median over gene's siRNAs: higher = stronger TNF reporter signal across the gene's siRNAs
- Rule for the call: 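Active when the replicate mean z-score is about -1 or lower, or about 1.5 or higher; lowered and raised TNF reporter signal both count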
- Meaning of the calls: active = changed TNF reporter (either direction); inactive = little change

What is on record for SUFU (SUFU negative regulator of hedgehog signaling) #1?
TNF reporter z-score, replicate mean: -0.43; z-score, median over gene's siRNAs: -0.165

With SUFU (SUFU negative regulator of hedgehog signaling) #2, what was measured?
TNF reporter z-score, replicate mean: 0.57; z-score, median over gene's siRNAs: -0.165

What is on record for SUFU (SUFU negative regulator of hedgehog signaling) #3?
TNF reporter z-score, replicate mean: 0.04; z-score, median over gene's siRNAs: -0.165

With SUFU (SUFU negative regulator of hedgehog signaling) #4, how do the results read?
TNF reporter z-score, replicate mean: -0.37; z-score, median over gene's siRNAs: -0.165

With SUFU (SUFU negative regulator of hedgehog signaling) #5, how do the results read?
TNF reporter z-score, replicate mean: 0.77; z-score, median over gene's siRNAs: -0.165

What is on record for SUFU (SUFU negative regulator of hedgehog signaling) #6?
TNF reporter z-score, replicate mean: -1.4 (active); z-score, median over gene's siRNAs: -0.165

With RPP25 (ribonuclease P/MRP subunit p25) #1, what was measured?
TNF reporter z-score, replicate mean: 1.45; z-score, median over gene's siRNAs: 0.315

What did the screen give for RPP25 (ribonuclease P/MRP subunit p25) #2?
TNF reporter z-score, replicate mean: -0.3; z-score, median over gene's siRNAs: 0.315

How did the screen score RPP25 (ribonuclease P/MRP subunit p25) #3?
TNF reporter z-score, replicate mean: 0.45; z-score, median over gene's siRNAs: 0.315

What is on record for RPP25 (ribonuclease P/MRP subunit p25) #4?
TNF reporter z-score, replicate mean: 0.01; z-score, median over gene's siRNAs: 0.315

What did the screen give for RPP25 (ribonuclease P/MRP subunit p25) #5?
TNF reporter z-score, replicate mean: 1.64 (active); z-score, median over gene's siRNAs: 0.315

With RPP25 (ribonuclease P/MRP subunit p25) #6, how do the results read?
TNF reporter z-score, replicate mean: 0.18; z-score, median over gene's siRNAs: 0.315

For SDHD (succinate dehydrogenase complex subunit D) #1, what was measured?
TNF reporter z-score, replicate mean: 1.55 (active); z-score, median over gene's siRNAs: 1.43

Which result is listed for SDHD (succinate dehydrogenase complex subunit D) #2?
TNF reporter z-score, replicate mean: 1.7 (active); z-score, median over gene's siRNAs: 1.43

What is on record for SDHD (succinate dehydrogenase complex subunit D) #3?
TNF reporter z-score, replicate mean: 1.31; z-score, median over gene's siRNAs: 1.43

Which result is listed for SDHD (succinate dehydrogenase complex subunit D) #4?
TNF reporter z-score, replicate mean: 2.12 (active); z-score, median over gene's siRNAs: 1.43

With SDHD (succinate dehydrogenase complex subunit D) #5, how do the results read?
TNF reporter z-score, replicate mean: -2.16 (active); z-score, median over gene's siRNAs: 1.43

How did the screen score SDHD (succinate dehydrogenase complex subunit D) #6?
TNF reporter z-score, replicate mean: -0.95; z-score, median over gene's siRNAs: 1.43

Which result is listed for YARS1 (tyrosyl-tRNA synthetase 1) #1?
TNF reporter z-score, replicate mean: 0.97; z-score, median over gene's siRNAs: -0.405

Which result is listed for YARS1 (tyrosyl-tRNA synthetase 1) #2?
TNF reporter z-score, replicate mean: -0.05; z-score, median over gene's siRNAs: -0.405

What did the screen give for YARS1 (tyrosyl-tRNA synthetase 1) #3?
TNF reporter z-score, replicate mean: 0.03; z-score, median over gene's siRNAs: -0.405

What is on record for YARS1 (tyrosyl-tRNA synthetase 1) #4?
TNF reporter z-score, replicate mean: -0.76; z-score, median over gene's siRNAs: -0.405

With YARS1 (tyrosyl-tRNA synthetase 1) #5, how do the results read?
TNF reporter z-score, replicate mean: -1.47 (active); z-score, median over gene's siRNAs: -0.405

With YARS1 (tyrosyl-tRNA synthetase 1) #6, what was measured?
TNF reporter z-score, replicate mean: -0.96; z-score, median over gene's siRNAs: -0.405

For PCDHA13 (protocadherin alpha 13) #1, what does the deposit list?
TNF reporter z-score, replicate mean: 0.5; z-score, median over gene's siRNAs: 0.34

With PCDHA13 (protocadherin alpha 13) #2, what does the deposit list?
TNF reporter z-score, replicate mean: 0.62; z-score, median over gene's siRNAs: 0.34

What is on record for PCDHA13 (protocadherin alpha 13) #3?
TNF reporter z-score, replicate mean: 0.18; z-score, median over gene's siRNAs: 0.34

For PCDHA13 (protocadherin alpha 13) #4, what does the deposit list?
TNF reporter z-score, replicate mean: -0.89; z-score, median over gene's siRNAs: 0.34

For PCDHA13 (protocadherin alpha 13) #5, what does the deposit list?
TNF reporter z-score, replicate mean: 0.58; z-score, median over gene's siRNAs: 0.34

With PCDHA13 (protocadherin alpha 13) #6, what does the deposit list?
TNF reporter z-score, replicate mean: -0.11; z-score, median over gene's siRNAs: 0.34

No new results follow: entries from further up.
SDHD (succinate dehydrogenase complex subunit D) #4 | TNF reporter z-score, replicate mean: 2.12 (active); z-score, median over gene's siRNAs: 1.43
SDHD (succinate dehydrogenase complex subunit D) #5 | TNF reporter z-score, replicate mean: -2.16 (active); z-score, median over gene's siRNAs: 1.43
